{
  "source": "PubChem BioAssay AID194",
  "about": "(DTP/NCI, 2004)",
  "test_system": "BDF1 mice, B16 melanoma s.c., survival/tumor T/C",
  "assay": "NCI In Vivo Anticancer Drug Screen. Data for tumor model B16 Melanoma (subcutaneous) in B6D2F1 (BDF1) mice",
  "protocol": "The antitumor activity of compounds was measured in mice bearing transplantable tumors. Survival or tumor size were measured and the results are expressed as the measurement made in the treated group (T) divided by the measurement made in the vehicle treated control group (C). The tumor model used in this assay is B16 Melanoma (subcutaneous) in B6D2F1 (BDF1) mice",
  "key": {"[1]": {"conditions": "T/C endpoint: median survival time, dose: 0.13 mg/kg/injection, schedule: Q01DX009 (ip), vehicle: saline, higher T/C = longer survival"}, "[2]": {"conditions": "T/C endpoint: median survival time, dose: 0.25 mg/kg/injection, schedule: Q01DX009 (ip), vehicle: saline, higher T/C = longer survival"}, "[3]": {"conditions": "T/C endpoint: median survival time, dose: 1.0 mg/kg/injection, schedule: Q01DX009 (ip), vehicle: saline, higher T/C = longer survival"}, "[4]": {"conditions": "T/C endpoint: median survival time, dose: 1.0 mg/kg/injection, schedule: Q08DX002 (ip), vehicle: saline, higher T/C = longer survival"}, "[5]": {"conditions": "T/C endpoint: median survival time, dose: 2.0 mg/kg/injection, schedule: Q08DX002 (ip), vehicle: saline, higher T/C = longer survival"}, "[6]": {"conditions": "T/C endpoint: median survival time, dose: 4.0 mg/kg/injection, schedule: Q08DX002 (ip), vehicle: saline, higher T/C = longer survival"}, "[7]": {"conditions": "T/C endpoint: median survival time, dose: 100.0 mg/kg/injection, schedule: Q01DX009 (ip), vehicle: Klucel (hydroxypropylcellulose) (HPC), higher T/C = longer survival"}, "[8]": {"conditions": "T/C endpoint: median survival time, dose: 24.0 mg/kg/injection, schedule: Q01DX007 (ip), vehicle: Klucel (hydroxypropylcellulose) (HPC), higher T/C = longer survival"}},
  "note": "The list does not hold the whole screen: it is rich in T/C values a quarter to a half above the control, in often repeated tests (any T/C) and in doses without a T/C. Further doses and runs are listed elsewhere. T/C: endpoint of the treated group in % of that of the vehicle group. Schedules are NCI's codes, read here as Q, the interval in days (D) or hours (H), X, the number of doses. Some doses have a count of surviving animals in place of a T/C: the source holds a T/C of zero for them, seemingly a mark for toxic or unscored doses. Some doses without a T/C left all or most animals alive at the check, yet need not have been tolerated: the source hardly ever lists a survival T/C far under the control, and the zero likely stands for such cases as well. Survivors were counted at the toxicity check, usually on the fifth day, unless a day is given; later deaths do not show. Some entries were tested several times; the results are listed from low to high. Where survival is the endpoint, this PubChem deposit counts one and a half times the control or more as active, and values a quarter to a half above the control carry no call in these data; other NCI protocols may use other cut-offs. Signs of the kind (2×) give the number of equal values in this list. Some T/C values carry the count of animals alive at the toxicity check (mostly the fifth day); where none is given, no animal had died by that day.",
  "data": [
    {"smiles": "C1CN1c1nc(N2CC2)nc(N2CC2)n1", "values": [
      {"measurement": "T/C", "setting": "T/C endpoint: median survival time, dose: 0.13 mg/kg/injection, schedule: Q01DX009 (ip), vehicle: saline with Tween-80, higher T/C = longer survival", "value": "137 % of control"},
      {"measurement": "T/C", "setting": "[1]", "value": "96, 105, 107, 113 % of control"},
      {"measurement": "survivor count", "setting": "[1]", "value": "6 of 6"},
      {"measurement": "T/C", "setting": "T/C endpoint: median survival time, dose: 0.25 mg/kg/injection, schedule: Q01DX009 (ip), vehicle: saline with Tween-80, higher T/C = longer survival", "value": "127 % of control"},
      {"measurement": "T/C", "setting": "[2]", "value": "95, 101, 111, 113, 123 % of control"},
      {"measurement": "survivor count", "setting": "[2]", "value": "5 of 6 and 6 of 6"},
      {"measurement": "T/C", "setting": "T/C endpoint: median survival time, dose: 0.5 mg/kg/injection, schedule: Q01DX009 (ip), vehicle: saline, higher T/C = longer survival", "value": "94, 98, 106, 110, 111, 125, 161 % of control"},
      {"measurement": "T/C", "setting": "T/C endpoint: median survival time, dose: 0.5 mg/kg/injection, schedule: Q08DX002 (ip), vehicle: saline, higher T/C = longer survival", "value": "93, 96, 98 (2×), 106, 109, 134 % of control"},
      {"measurement": "T/C", "setting": "[3]", "value": "86 and 92 % of control"},
      {"measurement": "survivor count", "setting": "[3]", "value": "5 of 6 and 6 of 6"},
      {"measurement": "survivor count", "setting": "T/C endpoint: median survival time, dose: 1.0 mg/kg/injection, schedule: Q08DX002 (ip), vehicle: saline with Tween-80, higher T/C = longer survival", "value": "4 of 6"},
      {"measurement": "T/C", "setting": "[4]", "value": "88, 92, 108, 109, 117, 126 % of control"},
      {"measurement": "survivor count", "setting": "[4]", "value": "6 of 6"},
      {"measurement": "T/C", "setting": "[5]", "value": "86, 112, 113, 115, 127 % of control (2×)"},
      {"measurement": "survivor count", "setting": "[5]", "value": "6 of 6"},
      {"measurement": "T/C", "setting": "[6]", "value": "136 % of control"},
      {"measurement": "survivor count", "setting": "[6]", "value": "2 of 6, 4 of 6, 5 of 6, 6 of 6"},
      {"measurement": "T/C", "setting": "T/C endpoint: median tumor weight (est.), dose: 4.0 mg/kg/injection, schedule: Q08DX002 (ip), vehicle: saline, evaluated on day 14, higher T/C = larger tumour", "value": "142 % of control"}
    ]},
    {"smiles": "Cn1c(CCCC(=O)O)nc2cc(N(CCCl)CCCl)ccc21", "values": [
      {"measurement": "survivor count", "setting": "T/C endpoint: median survival time, dose: 20.0 mg/kg/injection, schedule: Q01DX009 (ip), vehicle: saline, higher T/C = longer survival", "value": "10 of 10"}
    ]},
    {"smiles": "O=C1CSC(=S)N1c1ccco1", "values": [
      {"measurement": "T/C", "setting": "[7]", "value": "126 % of control"},
      {"measurement": "T/C", "setting": "T/C endpoint: median survival time, dose: 200.0 mg/kg/injection, schedule: Q01DX009 (ip), vehicle: Klucel (hydroxypropylcellulose) (HPC), higher T/C = longer survival", "value": "132 % of control"}
    ]},
    {"smiles": "O=NN(CCF)C(=O)NC1CCC(=O)NC1=O", "note": "(stereo unspecified)", "values": [
      {"measurement": "T/C", "setting": "T/C endpoint: median survival time, dose: 14.4 mg/kg/injection, schedule: Q01DX007 (ip), vehicle: Klucel (hydroxypropylcellulose) (HPC), higher T/C = longer survival", "value": "135 % of control [8 of 10 alive on day 55]"},
      {"measurement": "survivor count", "setting": "[8]", "value": "4 of 10 on day 55"}
    ]},
    {"smiles": "CC1(C)N=C(N)N=C(N)N1c1ccc(OCCOc2ccc(S(=O)(=O)F)cc2)c(Cl)c1", "values": [
      {"measurement": "T/C", "setting": "T/C endpoint: median survival time, dose: 50.0 mg/kg/injection, schedule: Q04DX003 (ip), vehicle: saline, higher T/C = longer survival", "value": "125 % of control"},
      {"measurement": "survivor count", "setting": "T/C endpoint: median survival time, dose: 200.0 mg/kg/injection, schedule: Q04DX003 (ip), vehicle: saline, higher T/C = longer survival", "value": "6 of 6"}
    ]},
    {"smiles": "O=c1cnn(C2OC(CO)C(O)C2O)c(=O)[nH]1", "note": "(stereo unspecified)", "values": [
      {"measurement": "survivor count", "setting": "T/C endpoint: median survival time, dose: 1200.0 mg/kg/injection, schedule: Q01DX009 (ip), vehicle: saline, higher T/C = longer survival", "value": "10 of 10"}
    ]},
    {"smiles": "OC(CBr)C(O)C(O)C(O)CBr", "note": "(stereo unspecified)", "values": [
      {"measurement": "T/C", "setting": "T/C endpoint: median survival time, dose: 75.0 mg/kg/injection, schedule: Q01DX009 (ip), vehicle: Klucel (hydroxypropylcellulose) (HPC), higher T/C = longer survival", "value": "136 % of control [9 of 10 alive]"},
      {"measurement": "T/C", "setting": "T/C endpoint: median survival time, dose: 80.0 mg/kg/injection, schedule: Q01DX009 (ip), vehicle: Klucel (hydroxypropylcellulose) (HPC), higher T/C = longer survival", "value": "130 % of control"},
      {"measurement": "survivor count", "setting": "T/C endpoint: median survival time, dose: 160.0 mg/kg/injection, schedule: Q01DX009 (ip), vehicle: Klucel (hydroxypropylcellulose) (HPC), higher T/C = longer survival", "value": "10 of 10"},
      {"measurement": "survivor count", "setting": "T/C endpoint: median survival time, dose: 300.0 mg/kg/injection, schedule: Q01DX009 (ip), vehicle: Klucel (hydroxypropylcellulose) (HPC), higher T/C = longer survival", "value": "9 of 10"},
      {"measurement": "survivor count", "setting": "T/C endpoint: median survival time, dose: 320.0 mg/kg/injection, schedule: Q01DX009 (ip), vehicle: Klucel (hydroxypropylcellulose) (HPC), higher T/C = longer survival", "value": "10 of 10"},
      {"measurement": "survivor count", "setting": "T/C endpoint: median survival time, dose: 480.0 mg/kg/injection, schedule: Q01DX009 (ip), vehicle: Klucel (hydroxypropylcellulose) (HPC), higher T/C = longer survival", "value": "10 of 10"},
      {"measurement": "survivor count", "setting": "T/C endpoint: median survival time, dose: 500.0 mg/kg/injection, schedule: Q01DX009 (ip), vehicle: Klucel (hydroxypropylcellulose) (HPC), higher T/C = longer survival", "value": "9 of 10"},
      {"measurement": "survivor count", "setting": "T/C endpoint: median survival time, dose: 600.0 mg/kg/injection, schedule: Q01DX009 (ip), vehicle: Klucel (hydroxypropylcellulose) (HPC), higher T/C = longer survival", "value": "10 of 10"},
      {"measurement": "survivor count", "setting": "T/C endpoint: median survival time, dose: 1000.0 mg/kg/injection, schedule: Q01DX009 (ip), vehicle: Klucel (hydroxypropylcellulose) (HPC), higher T/C = longer survival", "value": "7 of 10"}
    ]},
    {"smiles": "O=NN(CCCl)C(=O)NCCCl", "values": [
      {"measurement": "T/C", "setting": "T/C endpoint: median survival time, dose: 3.0 mg/kg/injection, schedule: Q02DX009 (ip), vehicle: saline + alcohol, higher T/C = longer survival", "value": "134 % of control"},
      {"measurement": "T/C", "setting": "T/C endpoint: median survival time, dose: 5.18 mg/kg/injection, schedule: Q01DX007 (ip), vehicle: Klucel (hydroxypropylcellulose) (HPC), higher T/C = longer survival", "value": "126 % of control"},
      {"measurement": "T/C", "setting": "T/C endpoint: median survival time, dose: 6.0 mg/kg/injection, schedule: Q02DX009 (ip), vehicle: saline + alcohol, higher T/C = longer survival", "value": "138 % of control"},
      {"measurement": "T/C", "setting": "T/C endpoint: median survival time, dose: 8.64 mg/kg/injection, schedule: Q01DX007 (ip), vehicle: Klucel (hydroxypropylcellulose) (HPC), higher T/C = longer survival", "value": "135 % of control [9 of 10 alive on day 55]"},
      {"measurement": "T/C", "setting": "T/C endpoint: median survival time, dose: 12.0 mg/kg/injection, schedule: Q02DX009 (ip), vehicle: saline + alcohol, higher T/C = longer survival", "value": "142 % of control"},
      {"measurement": "survivor count", "setting": "[8]", "value": "2 of 10 on day 55"},
      {"measurement": "survivor count", "setting": "T/C endpoint: median survival time, dose: 24.0 mg/kg/injection, schedule: Q02DX009 (ip), vehicle: saline + alcohol, higher T/C = longer survival", "value": "10 of 10"}
    ]},
    {"smiles": "Cn1ncc2c(N)ncnc21", "values": [
      {"measurement": "survivor count", "setting": "T/C endpoint: median survival time, dose: 12.5 mg/kg/injection, schedule: Q01DX009 (ip), vehicle: Klucel (hydroxypropylcellulose) (HPC), higher T/C = longer survival", "value": "10 of 10"},
      {"measurement": "survivor count", "setting": "T/C endpoint: median survival time, dose: 25.0 mg/kg/injection, schedule: Q01DX009 (ip), vehicle: Klucel (hydroxypropylcellulose) (HPC), higher T/C = longer survival", "value": "10 of 10"},
      {"measurement": "survivor count", "setting": "T/C endpoint: median survival time, dose: 50.0 mg/kg/injection, schedule: Q01DX009 (ip), vehicle: Klucel (hydroxypropylcellulose) (HPC), higher T/C = longer survival", "value": "10 of 10"},
      {"measurement": "survivor count", "setting": "[7]", "value": "3 of 10"}
    ]}
  ]
}
